The list is a part of this screen's results and no random one: it is rich in T/C values a quarter to a half above the control, in often repeated tests (any T/C) and in doses without a T/C. Further doses and runs are listed elsewhere. T/C: endpoint of the treated group in % of that of the vehicle group. Some doses have a count of surviving animals in place of a T/C: the source holds a T/C of zero for them, seemingly a mark for toxic or unscored doses. Some survivor counts are full or nearly so, which does not show that the dose was tolerated: the source hardly ever lists a survival T/C far under the control, and the zero likely stands for such cases as well. Counts of survivors are from the toxicity check (mostly the fifth day) where no day follows; animals may have died later. Schedule codes are those of the source, taken here to give the interval after Q, in days (D) or hours (H), and the number of doses after X. Some schedules carry Z or #; the key to these is not given. Brackets with × say how often a value occurs here. Some entries were tested several times; the values are given in rising order. For survival time, this PubChem deposit counts one and a half times the control or more as active, and values a quarter to a half above the control carry no call in these data; other NCI protocols may use other cut-offs. Some T/C values are followed by the survivors on the day toxicity was checked, most often the fifth; where none is given, no animal had died by that day.
Test system: L1210 leukemia ip in BDF1 mice, survival T/C
Experiment: NCI In Vivo Anticancer Drug Screen. Data for tumor model L1210 Leukemia (intraperitoneal) in B6D2F1 (BDF1) mice
Conditions: T/C endpoint: mean survival time, higher T/C = longer survival
[1] = dose: 200.0 mg/kg/injection, schedule: Q04DX003 (ip), vehicle: saline with Tween-80
[2] = dose: 400.0 mg/kg/injection, schedule: Q04DX003 (ip), vehicle: saline with Tween-80
[3] = dose: 400.0 mg/kg/injection, schedule: Q01DX009 (ip), vehicle: saline with Tween-80
[4] = dose: 100.0 mg/kg/injection, schedule: Q01DX009 (ip), vehicle: saline
[5] = dose: 10.0 mg/kg/injection, schedule: Q01DX Z (ip), vehicle: methylcellulose (MC)
[6] = dose: 100.0 mg/kg/injection, schedule: Q04DX003 (ip), vehicle: saline
[7] = dose: 200.0 mg/kg/injection, schedule: Q04DX003 (ip), vehicle: saline

Question: Which survivor count (dose: 4.67 mg/kg/injection, schedule: Q01DX009 (ip), vehicle: Klucel (hydroxypropylcellulose) (HPC)) does the source give for `C=COCC(C)C` (tested in a mixture with another compound) here?
Answer: The survivor count was 3 of 6.

Question: What about the survivor count (dose: 12.5 mg/kg/injection, schedule: Q01DX001 (ip), vehicle: other) of the same molecule?
Answer: Its survivor count is 3 of 6.

Question: What about the survivor count (dose: 12.5 mg/kg/injection, schedule: Q01DX009 (ip), vehicle: other) of the same molecule?
Answer: The survivor count was 1 of 6.

Question: What about the survivor count (dose: 12.5 mg/kg/injection, schedule: Q04DX003 (ip), vehicle: saline) of the same molecule?
Answer: The survivor count was 6 of 6.

Question: What about the survivor count (dose: 18.8 mg/kg/injection, schedule: Q01DX009 (ip), vehicle: saline) of the same molecule?
Answer: The survivor count was 6 of 6.

Question: And the survivor count (dose: 25.0 mg/kg/injection, schedule: Q01DX001 (ip), vehicle: other)?
Answer: The survivor count was 0 of 6.

Question: What about the survivor count (dose: 25.0 mg/kg/injection, schedule: Q01DX009 (ip), vehicle: Klucel (hydroxypropylcellulose) (HPC)) of the same molecule?
Answer: Its survivor count is 0 of 6.

Question: What about the survivor count (dose: 25.0 mg/kg/injection, schedule: Q04DX003 (ip), vehicle: other) of the same molecule?
Answer: The survivor count was 4 of 6.

Question: What about the survivor count (dose: 50.0 mg/kg/injection, schedule: Q01DX001 (ip), vehicle: other) of the same molecule?
Answer: Its survivor count is 0 of 6.

Question: And the survivor count (dose: 50.0 mg/kg/injection, schedule: Q01DX009 (ip), vehicle: alcohol)?
Answer: Its survivor count is 1 of 6.

Question: What about the survivor count (dose: 50.0 mg/kg/injection, schedule: Q04DX003 (ip), vehicle: Klucel (hydroxypropylcellulose) (HPC)) of the same molecule?
Answer: Its survivor count is 2 of 6.

Question: What about the survivor count (dose: 50.0 mg/kg/injection, schedule: Q04DX003 (ip), vehicle: other) of the same molecule?
Answer: Its survivor count is 2 of 6.

Question: What about the survivor count (dose: 75.0 mg/kg/injection, schedule: Q01DX001 (ip), vehicle: saline) of the same molecule?
Answer: Its survivor count is 4 of 6.

Question: What about the survivor count (dose: 80.0 mg/kg/injection, schedule: Q01DX009 (ip), vehicle: alcohol) of the same molecule?
Answer: The survivor count was 0 of 6.

Question: What about the survivor count (dose: 100.0 mg/kg/injection, schedule: Q01DX001 (ip), vehicle: Klucel (hydroxypropylcellulose) (HPC)) of the same molecule?
Answer: Its survivor count is 0 of 6 and 2 of 6.

Question: And the survivor count (dose: 100.0 mg/kg/injection, schedule: Q04DX003 (ip), vehicle: Klucel (hydroxypropylcellulose) (HPC))?
Answer: The survivor count was 0 of 6.

Question: What about the survivor count (dose: 100.0 mg/kg/injection, schedule: Q04DX003 (ip), vehicle: other) of the same molecule?
Answer: The survivor count was 2 of 6.

Question: What about the survivor count (dose: 100.0 mg/kg/injection, schedule: Q04DX003 (ip), vehicle: saline with Tween-80) of the same molecule?
Answer: Its survivor count is 6 of 6.

Question: What about the survivor count (dose: 120.0 mg/kg/injection, schedule: Q01DX009 (ip), vehicle: alcohol) of the same molecule?
Answer: The survivor count was 0 of 6.

Question: And the survivor count (dose: 150.0 mg/kg/injection, schedule: Q01DX001 (ip), vehicle: saline)?
Answer: Its survivor count is 0 of 5.

Question: What about the survivor count (dose: 150.0 mg/kg/injection, schedule: Q04DX003 (ip), vehicle: saline) of the same molecule?
Answer: The survivor count was 4 of 6.

Question: And the survivor count (dose: 200.0 mg/kg/injection, schedule: Q01DX001 (ip), vehicle: Klucel (hydroxypropylcellulose) (HPC))?
Answer: The survivor count was 0 of 6 and 2 of 6.

Question: What about the survivor count (dose: 200.0 mg/kg/injection, schedule: Q01DX001 (ip), vehicle: other) of the same molecule?
Answer: Its survivor count is 0 of 6 (2×).

Question: And the survivor count [1]?
Answer: Its survivor count is 5 of 6.

Question: What about the survivor count (dose: 300.0 mg/kg/injection, schedule: Q01DX001 (ip), vehicle: saline) of the same molecule?
Answer: The survivor count was 1 of 6.

Question: What about the survivor count (dose: 300.0 mg/kg/injection, schedule: Q04DX003 (ip), vehicle: saline) of the same molecule?
Answer: The survivor count was 1 of 6 (2×).

Question: What about the survivor count (dose: 400.0 mg/kg/injection, schedule: Q01DX001 (ip), vehicle: Klucel (hydroxypropylcellulose) (HPC)) of the same molecule?
Answer: Its survivor count is 0 of 6.

Question: And the survivor count (dose: 400.0 mg/kg/injection, schedule: Q01DX001 (ip), vehicle: other)?
Answer: Its survivor count is 0 of 6 and 1 of 6.

Question: What about the survivor count [2] of the same molecule?
Answer: Its survivor count is 0 of 6.

Question: `C(OC[C@H]1CC[C@@H](COCC2CO2)O1)C1CO1` (stereo partly drawn) was tested. Which T/C (dose: 180.0 mg/kg/injection, schedule: Q01DX007 (ip), vehicle: saline) did it give?
Answer: The T/C was 129 % of control.

Question: What about the T/C (dose: 300.0 mg/kg/injection, schedule: Q01DX009 (ip), vehicle: saline) of the same molecule?
Answer: The T/C was 138 % of control.

Question: And the T/C (dose: 400.0 mg/kg/injection, schedule: Q01DX001 (ip), vehicle: saline)?
Answer: The T/C was 125 and 136 % of control.

Question: What about the T/C (dose: 450.0 mg/kg/injection, schedule: Q01DX009 (ip), vehicle: saline) of the same molecule?
Answer: Its T/C is 136 % of control.

Question: What about the T/C (dose: 600.0 mg/kg/injection, schedule: Q01DX001 (ip), vehicle: saline) of the same molecule?
Answer: The T/C was 126 % of control.

Question: How did the survivor count [1] turn out when `COc1cc(N)c([N+](=O)[O-])c(OC)c1` was run?
Answer: Its survivor count is 3 of 6.

Question: And the survivor count [2]?
Answer: Its survivor count is 0 of 6.

Question: For `CC1N=C(N)NC(=O)C1c1ccc(Cl)cc1` (stereo not drawn), which survivor count [3] is on record?
Answer: The survivor count was 2 of 6.

Question: For `CCCCOC(=O)CCCc1ccc(N(CCCl)CCCl)cc1`, which T/C (dose: 25.0 mg/kg/injection, schedule: Q01DX009 (ip), vehicle: saline) is on record?
Answer: Its T/C is 135 % of control (2×).

Question: What about the T/C (dose: 50.0 mg/kg/injection, schedule: Q01DX009 (ip), vehicle: saline) of the same molecule?
Answer: The T/C was 125 [9 of 10 alive] and 144 % of control.

Question: What about the T/C [4] of the same molecule?
Answer: Its T/C is 130 % of control.

Question: And the survivor count [4]?
Answer: Its survivor count is 3 of 6.

Question: And the survivor count (dose: 200.0 mg/kg/injection, schedule: Q01DX009 (ip), vehicle: saline)?
Answer: Its survivor count is 0 of 6.

Question: What about the survivor count (dose: 400.0 mg/kg/injection, schedule: Q01DX009 (ip), vehicle: saline) of the same molecule?
Answer: The survivor count was 0 of 6.

Question: Which T/C (dose: 3.13 mg/kg/injection, schedule: Q01DX009 (ip), vehicle: saline) does the source give for `Cc1c2c(ccc3ccccc32)c[n+]2ccccc12` here?
Answer: Its T/C is 125 % of control.

Question: And the survivor count (dose: 4.4 mg/kg/injection, schedule: Q01DX Z (ip), vehicle: methylcellulose (MC))?
Answer: Its survivor count is 6 of 6.

Question: What about the survivor count (dose: 6.0 mg/kg/injection, schedule: Q01DX Z (ip), vehicle: methylcellulose (MC)) of the same molecule?
Answer: Its survivor count is 3 of 6.

Question: And the T/C (dose: 6.25 mg/kg/injection, schedule: Q01DX009 (ip), vehicle: saline)?
Answer: The T/C was 137 % of control.

Question: What about the survivor count (dose: 6.6 mg/kg/injection, schedule: Q01DX Z (ip), vehicle: methylcellulose (MC)) of the same molecule?
Answer: Its survivor count is 2 of 6.

Question: What about the survivor count (dose: 9.0 mg/kg/injection, schedule: Q03HX024 (ip), vehicle: saline) of the same molecule?
Answer: The survivor count was 4 of 10.

Question: And the survivor count (dose: 10.0 mg/kg/injection, schedule: Q01DX Z (ip), vehicle: carboxymethylcellulose (CMC))?
Answer: The survivor count was 4 of 6.

Question: And the T/C [5]?
Answer: Its T/C is 127 % of control.

Question: What about the survivor count [5] of the same molecule?
Answer: Its survivor count is 1 of 6.

Question: What about the T/C (dose: 12.5 mg/kg/injection, schedule: Q01DX009 (ip), vehicle: saline) of the same molecule?
Answer: The T/C was 132 % of control.

Question: And the survivor count (dose: 13.0 mg/kg/injection, schedule: Q03HX024 (ip), vehicle: saline)?
Answer: Its survivor count is 0 of 10.

Question: What about the survivor count (dose: 15.0 mg/kg/injection, schedule: Q01DX Z (ip), vehicle: methylcellulose (MC)) of the same molecule?
Answer: Its survivor count is 0 of 6.

Question: And the survivor count (dose: 20.0 mg/kg/injection, schedule: Q01DX Z (ip), vehicle: carboxymethylcellulose (CMC))?
Answer: The survivor count was 4 of 6.

Question: What about the survivor count (dose: 20.0 mg/kg/injection, schedule: Q03HX024 (ip), vehicle: saline) of the same molecule?
Answer: Its survivor count is 0 of 10.

Question: What about the survivor count (dose: 25.0 mg/kg/injection, schedule: Q04DX003 (ip), vehicle: saline) of the same molecule?
Answer: Its survivor count is 4 of 6.

Question: What about the survivor count (dose: 30.0 mg/kg/injection, schedule: Q01DX009 (ip), vehicle: saline) of the same molecule?
Answer: Its survivor count is 0 of 10.

Question: And the survivor count (dose: 30.0 mg/kg/injection, schedule: Q03HX024 (ip), vehicle: saline)?
Answer: The survivor count was 0 of 10.

Question: And the survivor count (dose: 40.0 mg/kg/injection, schedule: Q01DX001 (ip), vehicle: carboxymethylcellulose (CMC))?
Answer: The survivor count was 2 of 6.

Question: What about the survivor count (dose: 40.0 mg/kg/injection, schedule: Q01DX001 (ip), vehicle: saline) of the same molecule?
Answer: The survivor count was 5 of 10.

Question: What about the survivor count (dose: 40.0 mg/kg/injection, schedule: Q04DX003 (ip), vehicle: saline) of the same molecule?
Answer: Its survivor count is 0 of 10.

Question: And the survivor count (dose: 60.0 mg/kg/injection, schedule: Q01DX001 (ip), vehicle: saline)?
Answer: Its survivor count is 0 of 10.

Question: And the survivor count (dose: 60.0 mg/kg/injection, schedule: Q04DX003 (ip), vehicle: saline)?
Answer: The survivor count was 0 of 10.

Question: What about the survivor count [6] of the same molecule?
Answer: The survivor count was 0 of 6.

Question: And the survivor count [7]?
Answer: Its survivor count is 0 of 6.

Question: And the survivor count (dose: 400.0 mg/kg/injection, schedule: Q04DX003 (ip), vehicle: saline)?
Answer: Its survivor count is 0 of 6.

Question: For `CSc1ncnc2c1ncn2C1OC(CCC(N)=O)C(O)C1O` (stereo not drawn), which survivor count (dose: 200.0 mg/kg/injection, schedule: Q04DX002 (ip), vehicle: Klucel (hydroxypropylcellulose) (HPC)) is on record?
Answer: Its survivor count is 3 of 3.

Question: Which results are given for `N#CCC[CH2][Sn]([Br])([Br])[c]1ccccc1`?
Answer: survivor count (dose: 50.0 mg/kg/injection, schedule: Q04DX003 (ip), vehicle: saline): 0 of 3; survivor count [6]: 1 of 3; survivor count [7]: 0 of 3

Question: `C=C(C)CNc1ccccc1` was tested. Which survivor count [3] did it give?
Answer: The survivor count was 2 of 6.

Reference: PubChem BioAssay AID248 (DTP/NCI, 2004)
